The match of structure and compound is tentative.
Biological target: PD-1/PD-L1 interaction (Homo sapiens, UniProt Q9NZQ7)
Experiment: PD-1/PD-L1 NFAT reporter co-culture assay
Details: read-out: EC50 NFAT Luciferase; Jurkat PD-1 NFAT-luciferase cells co-cultured with aAPC-PD-L1 CHO cells, 6 hrs at 37° C.
Description: PD-1/PD-L1 NEAT Reporter Assay:
Compounds were tested in afunctional co-culture reporter assay in which TCR-mediated NFAT activity is inhibited by the engagement of PD-1 with PD-L1. […] CHO cells expressing surface-bound anti-CD3 antibodies and PD-L1 (artificial antigen presenting cells, aAPC-PD-L1) were first seeded overnight. Jurkat cells overexpressing PD-1 and expressing a luciferase construct under NFAT control are diluted in RPMI assay medium (RPMI 1640 with 2% FBS), mixed with compounds, and immediately seeded on the monolayer of aAPC-PD-L1. The co-culture is then incubated for 6 hrs at 37° C. Luciferase activity is assessed by adding the ONE-Glo reagent and measuring luminescence with a plate reader. EC50 values are calculated from the fit of the dose-response curves to a four-parameter equation (Table 3).

Amino acid sequences for entries named in this document (tags omitted). Residues count along the entry.
UniProt Q9NZQ7, 19-290 limits assumed: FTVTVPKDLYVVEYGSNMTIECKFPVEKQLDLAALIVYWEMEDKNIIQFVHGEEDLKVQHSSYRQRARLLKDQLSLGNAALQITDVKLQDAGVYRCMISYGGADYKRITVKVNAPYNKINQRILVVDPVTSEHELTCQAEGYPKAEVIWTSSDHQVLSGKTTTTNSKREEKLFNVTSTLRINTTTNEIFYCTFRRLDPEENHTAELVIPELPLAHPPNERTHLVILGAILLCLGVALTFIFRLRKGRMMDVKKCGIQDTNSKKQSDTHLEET

`COc1nc(OCc2cccc(-c3cccc(COc4nc(OC)c(CNC5CCCCC5C(=O)O)cc4Cl)c3C)c2C)c(Cl)cc1CNC1CCCCC1C(=O)O` (racemic) gave an EC50 of at least 50 µM.

— US12590062B2, “PD-1/PD-L1 inhibitors” (Gilead Sciences, Inc., priority 2017, dated 2026)
